In the supplement of paper PMC4604168 (melanoma cell lines):
Some of the results follow. Single values are uncertain, as repeats are few or missing.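 Imaging used 1,536-well plates; nuclei positive for cleaved PARP by antibody were divided by total DNA-stained nuclei to yield the apoptosis fraction. Doses for screening kept most cells viable, and cell lines differ markedly in resting and induced cleaved-PARP levels.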

Key:
Assay in all cases: cleaved PARP positive nuclei fraction relative to DMSO control; melanoma cells; higher = more apoptosis
Conditions in all cases: library dose: low library concentration; 72 h
501Mel = system: 501Mel
A101D = system: A101D
A2058 = system: A2058
A375 = system: A375
C32 = system: C32
CBRC013 = system: CBRC013 (line from a melanoma biopsy)
CBRC014 = system: CBRC014 (line from a melanoma biopsy)
CBRC016 = system: CBRC016 (line from a melanoma biopsy)
CBRC017 = system: CBRC017 (line from a melanoma biopsy)

Structure (SMILES) | cleaved PARP positive nuclei fraction (501Mel) | cleaved PARP positive nuclei fraction (A101D) | cleaved PARP positive nuclei fraction (A2058) | cleaved PARP positive nuclei fraction (A375) | cleaved PARP positive nuclei fraction (C32) | cleaved PARP positive nuclei fraction (CBRC013) | cleaved PARP positive nuclei fraction (CBRC014) | cleaved PARP positive nuclei fraction (CBRC016) | cleaved PARP positive nuclei fraction (CBRC017)
COc1cc2ncnc(Nc3ccc(Oc4ccccc4)cc3)c2cc1OC + Cn1cc(/C=C2\C(=O)Nc3cccnc32)c2ccccc21 [GW441756] (first compound 2 µM, partner dose 0.4 µM) | 72.8% | 258% | 132% | 146% | 185% | 48.7% | 101% | 135% | 67.2%
COc1ccc(-c2ccc3c(N4CCOCC4)nc(N4C[C@@H](C)O[C@@H](C)C4)nc3n2)cc1CO + COc1cc2ncnc(Nc3ccc(Oc4ccccc4)cc3)c2cc1OC [SrcI1] (first compound 0.02 µM, partner dose 2 µM) | 63.4% | 199% | 42% | 153% | 69.1% | 127% | 102% | 29.4% | 114%
Oc1nc(-c2ccc(C(F)(F)F)cc2)nc2c1CSCC2 + O=c1cc(-c2cccc3c2Sc2ccccc2S3)oc(N2CCOCC2)c1 [KU55933] (first compound 2 µM, partner dose 1 µM) | 111% | 54.8% | 68.1% | 75.3% | 64.5% | 45.6% | 156% | 90.9% | 102%
O=C(Nc1ccccc1)c1cc([N+](=O)[O-])ccc1Cl + COc1ccc(-c2ccc3c(N4CCOCC4)nc(N4C[C@@H](C)O[C@@H](C)C4)nc3n2)cc1CO [KU0063794] (first compound 2 µM, partner dose 0.02 µM) | – | 122% | 74.9% | 88.4% | 38.6% | 173% | 84.5% | 100% | 74.4%
CN(C)S(=O)(=O)c1ccc2c(c1)/C(=C/c1cc3c([nH]1)CCCC3)C(=O)N2 + O=C(Nc1ccccc1)c1cc([N+](=O)[O-])ccc1Cl [GW9662] (first compound 0.4 µM, partner dose 2 µM) | 91.6% | 148% | 78.9% | 83.6% | 72.1% | 653% | 101% | 112% | 103%
COC(=O)c1sccc1S(=O)(=O)Nc1ccc(Nc2ccccc2)cc1OC + Oc1cc(-c2nc(-c3ccccc3)[nH]c2-c2ccncc2)ccc1Cl [L779450] (first compound 1 µM, partner dose 0.2 µM) | – | 69% | 96% | 28.2% | 49.2% | 113% | 106% | 87.8% | 89.4%
O=S(=O)(c1ccccc1)N(CC(F)(F)F)c1ccc(C(O)(C(F)(F)F)C(F)(F)F)cc1 + COc1cc2ncnc(Nc3ccc(Oc4ccccc4)cc3)c2cc1OC [SrcI1] (first compound 1.4 µM, partner dose 2 µM) | 108% | 285% | 57.9% | 68% | 144% | 86.3% | 92.5% | 103% | 114%
CCc1ccc(CCOc2ccc(CC3SC(=O)NC3=O)cc2)nc1 (stereo unspecified) [pioglitazone] + O=C(O)C(=O)Nc1sc2c(c1C(=O)O)CCNC2 [TCS401] (first compound 2 µM, partner dose 1.66667 µM) | – | 117% | 87.8% | 43.4% | 70.7% | 60.2% | 87.9% | 84% | 87.6%
COC(=O)c1sccc1S(=O)(=O)Nc1ccc(Nc2ccccc2)cc1OC + COc1cc2ncnc(Nc3ccc(Oc4ccccc4)cc3)c2cc1OC [SrcI1] (first compound 1 µM, partner dose 2 µM) | 123% | 102% | 95% | 130% | 42.4% | 110% | 87% | 151% | 103%
O=C(Nc1ccccc1)c1cc([N+](=O)[O-])ccc1Cl + O=S(=O)(c1ccccc1)N(CC(F)(F)F)c1ccc(C(O)(C(F)(F)F)C(F)(F)F)cc1 [T0901317] (first compound 2 µM, partner dose 1.4 µM) | – | 59.3% | 100% | 94.8% | 122% | 45.6% | 110% | 56.3% | 156%
N#Cc1c(O)c2c(-c3ccc(-c4ccccc4O)cc3)csc2[nH]c1=O + O=S(=O)(c1ccccc1)N(CC(F)(F)F)c1ccc(C(O)(C(F)(F)F)C(F)(F)F)cc1 [T0901317] (first compound 2 µM, partner dose 1.4 µM) | – | 201% | 147% | 154% | 17.3% | 80.7% | 117% | 27.6% | 243%
COc1cc2ncnc(Nc3ccc(Oc4ccccc4)cc3)c2cc1OC + CC(C)CCN1c2nc(Nc3cc(F)c(O)c(F)c3)ncc2N(C)C(=O)C1C [BID1870] (first compound 2 µM, partner dose 0.2 µM) | – | 67.7% | 140% | 54.7% | 36% | 172% | 91% | 130% | 217%
CN(NC(=O)CC(=O)NN(C)C(=S)c1ccccc1)C(=S)c1ccccc1 + Cc1cc([N+](=O)[O-])ccc1NS(=O)(=O)c1cc(Cl)ccc1Cl [FH535] (first compound 0.006 µM, partner dose 1 µM) | 606% | 167% | 349% | 5940% | 168% | 532% | 1070% | 392% | 2710%
c1cc(-c2cnn3cc(-c4ccc(OCCN5CCCCC5)cc4)cnc23)ccn1 [Dorsomorphin] + CCCCCCCCCCCC1=C(O)C(=O)C=C(O)C1=O [Embelin] (first compound 0.4 µM, partner dose 1.2 µM) | – | 35.6% | 71.8% | 72% | 131% | 138% | 80.8% | 99.8% | 73.9%
CN(NC(=O)CC(=O)NN(C)C(=S)c1ccccc1)C(=S)c1ccccc1 + N#Cc1c(O)c2c(-c3ccc(-c4ccccc4O)cc3)csc2[nH]c1=O [A769662] (first compound 0.006 µM, partner dose 2 µM) | – | 290% | 199% | 1840% | 132% | 209% | 398% | 354% | 140%
CCN(CC)CCCCNc1ncc2cc(-c3cc(OC)cc(OC)c3)c(NC(=O)NC(C)(C)C)nc2n1 + Oc1cc(-c2nc(-c3ccccc3)[nH]c2-c2ccncc2)ccc1Cl [L779450] (first compound 0.1 µM, partner dose 0.2 µM) | – | 113% | 64.5% | 216% | 46.6% | 120% | 91.2% | 25.1% | 77.3%
O=C1NC(=O)/C(=C/c2ccc(-c3ccc(F)cc3O)o2)S1 + CCCCCCCCCCCC1=C(O)C(=O)C=C(O)C1=O [Embelin] (first compound 1 µM, partner dose 1.2 µM) | – | 124% | 112% | 44.8% | 102% | 78.6% | 95.7% | 74.1% | 193%
CCN(CC)CCCCNc1ncc2cc(-c3cc(OC)cc(OC)c3)c(NC(=O)NC(C)(C)C)nc2n1 + COc1cc(N2CCC(N3CCN(C)CC3)CC2)ccc1Nc1ncc(Cl)c(Nc2ccccc2S(=O)(=O)C(C)C)n1 [NVP-TAE684] (first compound 0.1 µM, partner dose 0.08 µM) | – | 232% | 39.2% | 123% | 63.2% | 167% | 100% | 21.7% | 153%
O=C1NC(=O)/C(=C/c2ccc(-c3ccc(F)cc3O)o2)S1 + Cc1cc([N+](=O)[O-])ccc1NS(=O)(=O)c1cc(Cl)ccc1Cl [FH535] (first compound 1 µM, partner dose 1 µM) | – | 69.1% | 121% | 45.5% | 69.8% | 561% | 121% | 356% | 193%
NCC(=O)Nc1ccc(-n2nc(C(F)(F)F)cc2-c2ccc3c(ccc4ccccc43)c2)cc1 + COc1cc(N2CCC(N3CCN(C)CC3)CC2)ccc1Nc1ncc(Cl)c(Nc2ccccc2S(=O)(=O)C(C)C)n1 [NVP-TAE684] (first compound 1 µM, partner dose 0.08 µM) | – | 56.1% | 47.6% | 4730% | 56.6% | 119% | 82.3% | 79.9% | 79.5%
CN(NC(=O)CC(=O)NN(C)C(=S)c1ccccc1)C(=S)c1ccccc1 + COc1ccc(-c2ccc3c(N4CCOCC4)nc(N4C[C@@H](C)O[C@@H](C)C4)nc3n2)cc1CO [KU0063794] (first compound 0.006 µM, partner dose 0.02 µM) | 169% | 290% | 116% | 2050% | 86.7% | 68.6% | 429% | 252% | 71.3%
COc1ccc2c(c1)CCC1C2CCC2(C)C(NCCCCCCN3C(=O)C=CC3=O)CCC12 (stereo unspecified) + COc1cc(N2CCC(N3CCN(C)CC3)CC2)ccc1Nc1ncc(Cl)c(Nc2ccccc2S(=O)(=O)C(C)C)n1 [NVP-TAE684] (first compound 0.4 µM, partner dose 0.08 µM) | – | 117% | 82.4% | 155% | 113% | 149% | 112% | 160% | 85.8%
N#Cc1c(O)c2c(-c3ccc(-c4ccccc4O)cc3)csc2[nH]c1=O + COC(=O)c1sccc1S(=O)(=O)Nc1ccc(Nc2ccccc2)cc1OC [GSK0660] (first compound 2 µM, partner dose 1 µM) | – | 94.4% | 148% | 22.5% | 101% | 209% | 98.8% | 44.1% | 85.7%
CN(C)S(=O)(=O)c1ccc2c(c1)/C(=C/c1cc3c([nH]1)CCCC3)C(=O)N2 + CC(C)CCN1c2nc(Nc3cc(F)c(O)c(F)c3)ncc2N(C)C(=O)C1C [BID1870] (first compound 0.4 µM, partner dose 0.2 µM) | – | 180% | 75.7% | 40.7% | 103% | 49.5% | 105% | 85.4% | 104%
CN(NC(=O)CC(=O)NN(C)C(=S)c1ccccc1)C(=S)c1ccccc1 + c1cc(-c2cnn3cc(-c4ccc(OCCN5CCCCC5)cc4)cnc23)ccn1 [Dorsomorphin] (first compound 0.006 µM, partner dose 0.4 µM) | – | 221% | 434% | 5970% | 110% | 564% | 577% | 147% | 233%
COc1ccc(-c2ccc3c(N4CCOCC4)nc(N4C[C@@H](C)O[C@@H](C)C4)nc3n2)cc1CO + Cn1cc(/C=C2\C(=O)Nc3cccnc32)c2ccccc21 [GW441756] (first compound 0.02 µM, partner dose 0.4 µM) | – | 315% | 73% | 83.2% | 41.3% | 53.5% | 96.4% | 25.2% | 70.9%

Retrieved one by one from the entries so far:
Structure (SMILES) | cleaved PARP positive nuclei fraction (501Mel) | cleaved PARP positive nuclei fraction (A101D) | cleaved PARP positive nuclei fraction (A2058) | cleaved PARP positive nuclei fraction (A375) | cleaved PARP positive nuclei fraction (C32) | cleaved PARP positive nuclei fraction (CBRC013) | cleaved PARP positive nuclei fraction (CBRC014) | cleaved PARP positive nuclei fraction (CBRC016) | cleaved PARP positive nuclei fraction (CBRC017)
COc1ccc2c(c1)CCC1C2CCC2(C)C(NCCCCCCN3C(=O)C=CC3=O)CCC12 (stereo unspecified) + COc1cc(N2CCC(N3CCN(C)CC3)CC2)ccc1Nc1ncc(Cl)c(Nc2ccccc2S(=O)(=O)C(C)C)n1 [NVP-TAE684] (first compound 0.4 µM, partner dose 0.08 µM) | – | 117% | 82.4% | 155% | 113% | 149% | 112% | 160% | 85.8%
CN(C)S(=O)(=O)c1ccc2c(c1)/C(=C/c1cc3c([nH]1)CCCC3)C(=O)N2 + O=C(Nc1ccccc1)c1cc([N+](=O)[O-])ccc1Cl [GW9662] (first compound 0.4 µM, partner dose 2 µM) | 91.6% | 148% | 78.9% | 83.6% | 72.1% | 653% | 101% | 112% | 103%
